Assay results reported in PubChem BioAssay AID1458 (National Center for Advancing Translational Sciences (NCATS), 2008).
Out of some 210,000 compounds screened, about 5,900 (2.8%) were called active. Inconclusive results (about 5%) are left out. Calls come from the whole dose curve; as a rule, active = well fitted activation curve with a large enough effect; inconclusive = small, poorly fitted or top-dose-only effect; inactive = no such curve, though single readings can be large or run the other way. Only a part is listed here, and it is no random draw. Entries without a call were filed so in the source.

Test: qHTS Assay for Enhancers of SMN2 Splice Variant Expression; note: nearly all actives have a fitted effect of over 55% in size; for activity change, positive = activation: % of control where 0% means no effect
Conditions: HEK293 SMN2-luciferase splicing reporter, luminescence, 30-36 h; activity change, positive = activation: at 46.1 µM (top of the series) unless noted
How it was run: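 qHTS luciferase splicing reporter: luminescence rises when SMN2 exon 7 is included in transfected HEK293 cells. Compound exposure lasted 30-36 h at 37C, with 4.5 mM final sodium butyrate as control, followed by a ONE-Glo read.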
Potency is the fitted concentration of half-maximal effect.

Structure (SMILES) | activity change, positive = activation | Potency
O=C(COc1ccc(Cl)cc1)Nc1ccc(C(=O)NCc2cccnc2)cc1 | -59.3% | –
COc1ccc(Cn2c(=O)sc3ccccc32)cc1OC | -63.8% | –
CCOC(=O)CSc1nc2cc(C(=O)N3CCC(C(N)=O)CC3)ccc2c(=O)n1-c1ccccc1 | 43.5% | –
Cc1csc(NC(=O)CSc2nnc(-c3ccccc3)o2)n1 | – | active: 11.2 µM
Cc1ccc(S(=O)(=O)Cc2ccc(C(=O)N3CCN(Cc4ccccc4)CC3)o2)cc1 | inactive: -33% | –
CCOC(=O)CCCCC(=O)c1[nH]c(=O)[nH]c1CN1CCOCC1 | 22% | –
Cn1cc([N+](=O)[O-])c(C(=O)Nc2cc(Oc3cccnc3)cc([N+](=O)[O-])c2)n1 | inactive: -44.9% | –
COc1ccc(CC(=O)Nc2ccc(-c3csc(C)n3)cc2)cc1 | 39.6% | –
CCOC(=O)c1c(C)[nH]c(C(=O)CSc2nc3ccccc3o2)c1C | – | active: 0.316 µM
CCC(=O)NC(=S)Nc1ccc2oc(-c3ccc(OC)cc3)nc2c1 | – | active: 7.94 µM
O=C(CCNC(=O)c1ccccc1Cl)Nc1nc2ccccc2s1 | 74.3% | –
CCCCN(CCCC)C(=O)c1nsnc1-c1ccccc1O | 32.8% | –
CN(C(=O)C1CCOC1)c1nnc(-c2ccccn2)s1 (centres undefined) | inactive: 80.2% | –
c1ccc2c(c1)OCC(CNc1ncnc3sccc13)O2 (centres undefined) | inactive: -63.5% | –
COc1cc2c(cc1OC)C(c1cc3cc4c(cc3[nH]c1=O)OCO4)N(C(=O)C(C)C)CC2 (centres undefined) | -40.9% | –
C[N+](C)(C)CCCCCC(=O)/C=N/O | -32.4% | –
Nc1nonc1-c1nc2ccccc2n1CC(=O)Nc1cccc(C(F)(F)F)c1 | 40% | –
CCOC(=O)c1[nH]c(C)c(C(=O)Nc2cccc(Cl)c2C)c1C | 44.9% | –
Clc1ccc(CN=C2Nc3ccccc3CS2)cc1 | – | active: 12.6 µM
Cc1cccc(NS(=O)(=O)c2ccc(C)c(C(=O)OCC(=O)Nc3cc(C)on3)c2)c1 | – | active: 20 µM
Clc1ccccc1/C=N/NC1=Nc2cccc3cccc1c23 | – | active: 5.62 µM
CCOC(=O)c1sc(NC(=O)c2cc(-c3ccc(C)cc3)nc3ccccc23)c(C#N)c1C | inactive: -78.4% | –

Structure (SMILES) | activity change, positive = activation | Potency
Cc1ccc(-c2nc3ccccc3o2)cc1NC(=O)c1ccc2c(c1)OCO2 | 54.6% | –
Cc1ccc(S(=O)(=O)/C=C2\NC(=O)CS2)cc1 | 30% | –
O=C(CCCn1c(=O)c2ccccc2n(CC(=O)NCc2ccco2)c1=O)NCc1ccco1 | 66.1% | –
COc1ccccc1-n1c(SCC(=O)O)nnc1-c1ccc(S(=O)(=O)N2CCCCC2)cc1 | 37.9% | –
O=C1C(Nc2cccc(O)c2)=C(N2CCCCC2)C(=O)c2ccccc21 | inactive: -30.2% | –
COc1cccc(/C=N/Nc2nccnc2Cl)c1O | inactive: -65.7% | –
O=C(NC12CC3CC(CC(C3)C1)C2)N1CCC(O)CC1 | 44.9% | –
COc1ccccc1/C=N/Nc1nncc2ccccc12 | – | active: 10 µM
C=CCn1c(Cc2ccc(OC)cc2)nnc1SCC(N)=O | 54.5% | –
CCOc1cc(C(=O)Nc2ccc(N3CCN(S(C)(=O)=O)CC3)cc2)cc(OCC)c1OCC | 36.5% | –
O=C(NCc1ccccc1)c1noc2c1CCCC2 | 38.6% | –
S=c1[nH]nc(Nc2ccccc2Cl)s1 | 58.6% | –
NC(=O)CN1CCN(S(=O)(=O)c2ccc(Br)cc2)CC1 | -17.6% | –
Cc1oc(CSCC2CCCO2)cc1C(=O)O (centres undefined) | 35.4% | –
COc1ccc(S(=O)(=O)n2cnc3cc(C)c(C)cc32)cc1C | -46% | –
Cc1cc(N2CCN(c3cccc(C(F)(F)F)c3)CC2)n2ncnc2n1 | -32.7% | –
O=C(CCC(=O)N1CCc2ccccc21)Nc1ccccc1 | 32.7% | –
COc1cccc(NC(=O)CSc2nnc(-c3cc(C)n(-c4ccccc4)c3C)o2)c1 | inactive: -42.5% | –
Cc1ccccc1-n1c(-c2ccncc2)n[nH]c1=S | 45% | –
CN(C)CCN=c1cc(-c2ccccc2)oc2ccc(Cl)cc12 | – | active: 15.8 µM
COc1ccccc1N1CCN(C(=O)Cn2nc(C(F)(F)F)c3c2CCC3)CC1 | 42% | –
Cc1ccc(C2C3=C(CC(C)(C)CC3=O)Nc3onc(C)c32)cc1 (centres undefined) | 10.5% | –

For convenience, 19 of the compounds above:
Structure (SMILES) | activity change, positive = activation | Potency
Cc1ccc(-c2nc3ccccc3o2)cc1NC(=O)c1ccc2c(c1)OCO2 | 54.6% | –
Cc1ccc(S(=O)(=O)/C=C2\NC(=O)CS2)cc1 | 30% | –
O=C(CCCn1c(=O)c2ccccc2n(CC(=O)NCc2ccco2)c1=O)NCc1ccco1 | 66.1% | –
COc1ccccc1-n1c(SCC(=O)O)nnc1-c1ccc(S(=O)(=O)N2CCCCC2)cc1 | 37.9% | –
O=C1C(Nc2cccc(O)c2)=C(N2CCCCC2)C(=O)c2ccccc21 | inactive: -30.2% | –
COc1cccc(/C=N/Nc2nccnc2Cl)c1O | inactive: -65.7% | –
O=C(NC12CC3CC(CC(C3)C1)C2)N1CCC(O)CC1 | 44.9% | –
COc1ccccc1/C=N/Nc1nncc2ccccc12 | – | active: 10 µM
C=CCn1c(Cc2ccc(OC)cc2)nnc1SCC(N)=O | 54.5% | –
CCOc1cc(C(=O)Nc2ccc(N3CCN(S(C)(=O)=O)CC3)cc2)cc(OCC)c1OCC | 36.5% | –
O=C(NCc1ccccc1)c1noc2c1CCCC2 | 38.6% | –
S=c1[nH]nc(Nc2ccccc2Cl)s1 | 58.6% | –
NC(=O)CN1CCN(S(=O)(=O)c2ccc(Br)cc2)CC1 | -17.6% | –
Cc1oc(CSCC2CCCO2)cc1C(=O)O (centres undefined) | 35.4% | –
COc1ccc(S(=O)(=O)n2cnc3cc(C)c(C)cc32)cc1C | -46% | –
Cc1cc(N2CCN(c3cccc(C(F)(F)F)c3)CC2)n2ncnc2n1 | -32.7% | –
O=C(CCC(=O)N1CCc2ccccc21)Nc1ccccc1 | 32.7% | –
COc1cccc(NC(=O)CSc2nnc(-c3cc(C)n(-c4ccccc4)c3C)o2)c1 | inactive: -42.5% | –
Cc1ccccc1-n1c(-c2ccncc2)n[nH]c1=S | 45% | –

Continuation:

Structure (SMILES) | activity change, positive = activation | Potency
O=C(NCc1cccc(Br)c1)C1CCN(C(=O)c2sccc2-n2cccc2)CC1 | inactive: -33.9% | –
c1ccc2cc(OCc3nc4ccccc4[nH]3)ccc2c1 | – | active: 2.82 µM
COc1ccc2[nH]c(C)c(CCN3C(=O)C4CC=CCC4C3=O)c2c1 (centres undefined) | inactive: -32.9% | –
CCCCCC(=O)NC(=S)Nc1cccc(C(C)=O)c1 | 34.4% | –
Cc1cc(Cl)c(S(=O)(=O)N2CCN(c3ccc(F)cc3)CC2)cc1OCC(=O)NC1CCCCC1 | inactive: -77.5% | –
O=C(c1cnn2c(C(F)F)cc(-c3ccccc3)nc12)N1CCN2CCCC2C1 (centres undefined) | 37.2% | –
CCn1cc(C(=O)NC2CCCCCC2)c2cc(OC)c(OC)cc2c1=O | inactive: -18.1% | –
COc1ccc(C(=O)/C=C/c2cc(OC)c(O)c(OC)c2)c(F)c1 | -98.5% | –
CCCCn1c(=O)[nH]c(=O)c2c1nc(-c1ccncc1)n2CCOC | 30.3% | –
CCCOC(=O)Cn1c(=O)c2cc3c(=O)n(CC(=O)OCCC)c(=O)c3cc2c1=O | 35.8% | –
O=C(c1ccc(-n2c(SCc3cc(F)ccc3F)nc3ccccc3c2=O)cc1)N1CCOCC1 | -10.4% | –
COc1ccccc1C(=O)n1nc(-c2ccccc2)nc1NCc1ccco1 | – | active: 12.6 µM
COc1ccc(NC(=O)N2CCN(c3cccc(C(F)(F)F)c3)CC2)cc1 | inactive: -40.3% | –
Cn1c(SCC(=O)N/N=C/c2ccc([N+](=O)[O-])s2)nnc1-c1ccccc1 | inactive: -59.7% | –
COc1ccccc1Oc1ccc2c(c1)C(=O)N(c1ccc(O)cc1)C2=O | 33% | –
CC(=O)Nc1cc(C(=O)NCCN2CCN(Cc3ccccc3)CC2)ccc1Sc1ccc(C)cc1 | inactive: -37.8% | –
Cc1nc(NC(=O)CSc2ccccc2N)sc1C | 31.9% | –
CCN(CCNC(=O)C1CCCN(Cc2nc(-c3ccc(OC)cc3)oc2C)C1)c1ccccc1 (centres undefined) | inactive: -33.2% | –
COCCNc1oc(-c2ccc(C)cc2)nc1C#N | – | active: 10 µM
COc1ccccc1NC(=S)N(Cc1ccc(Cl)cc1)CC1CCC(C(=O)O)CC1 (centres undefined) | -51.4% | –
N#CNC(N)=Nc1cccc(Cl)c1 | 35.7% | –
C/C(=N/NC(=O)CNC(=O)c1ccccn1)c1ccccc1 | -43.2% | –

Structure (SMILES) | activity change, positive = activation | Potency
CCc1[nH]nc2c1C1(CCN(C(=O)c3ccccc3)CC1)C(C#N)=C(N)O2 | 29.3% | –
O=C(N/N=C/c1cn(-c2ccccc2)nc1-c1cccs1)c1ccc(Cl)cc1 | inactive: -51.9% | –
CCNC(=O)/C(=C/c1cccc([N+](=O)[O-])c1)NC(=O)c1ccc(C)cc1 | 3.05% | –
CCOc1ccc(N(CC(=O)Nc2ccc(C)c(C)c2)S(=O)(=O)c2c(C)noc2C)cc1 | inactive: -47% | –
COc1ccccc1Oc1ccccc1C(=O)O | 62.8% | –
Cc1[nH]c2ccccc2c1CC(=O)O | 72.4% | –
Cc1ccc(S(=O)(=O)N2CCC(C(=O)C3C(=O)CCCC3=O)CC2)cc1 | 56.3% | –
COc1ccc(/C=C/c2nc3ccccc3n2Cc2ccc(OC)c(OC)c2)cc1 | 105% | –
O=C(COc1ccc(S(=O)(=O)N2CCCC2)cc1)NCCC1=CCCCC1 | 18.8% | –
O=C(c1ccc2c(=O)n3c(nc2c1)CCCCC3)N1CCN(C(c2ccccc2)c2ccccc2)CC1 | inactive: -41.7% | –
COc1ccc(C(=O)NNC(=O)C(Cc2ccc(O)cc2)NC(=O)c2ccccc2NC(=O)c2ccc(OC)cc2)cc1 (centres undefined) | 32.9% | –
c1ccc(CCNc2ccnc3cc4ccccc4cc23)cc1 | inactive: -65.8% | –
CCCCc1ccc(-c2ccc(C)cc2O)nc1 | – | active: 22.4 µM
CCCOc1ccc(C(=O)NNC(=S)NC(=O)CC)cc1 | -89.3% | –
O=C(OCc1ccc(F)cc1Cl)c1ccccn1 | 53.2% | –
CC1CC(C)CN(CCOc2ccc(Cl)cc2Cl)C1 (centres undefined) | 23% | –
CCSc1nnc(NC(=O)NC2CCCCC2)s1 | 72.7% | –
O=C(c1ccc2c(c1)N(Cc1ccccc1)C(=O)c1ccccc1S2=O)N1CCC(Cc2ccccc2)CC1 (centres undefined) | inactive: -46.4% | –
N=C(N)SCc1ccccn1 | -0.944% | –
CCN(CC)c1ccc(/C=N/NC(=O)c2cnccn2)cc1 | – | active: 20 µM
COc1ccc(-c2nnc(SCc3ccccc3F)o2)cc1 | – | active: 11.2 µM
Cc1scc(C(=O)Nn2cnnc2)c1-c1ccccc1 | 41.6% | –

Structure (SMILES) | activity change, positive = activation | Potency
CCCCOC(=O)c1ccc(O)cc1 | – | inactive
CCCCN=C1NN=C(c2ccc3c(c2)OCCO3)CS1 | -39.9% | –
CCN(CC)CCCNC(=O)CSc1nc2nc(C)c(Cc3c(F)cccc3Cl)c(C)n2n1 | -41% | –
Cn1c(=O)n(CC(=O)NC2CCCCC2)c(=O)c2ccccc21 | 61.3% | –
O=C(CCN1C(=O)c2ccccc2C1=O)NCc1ccco1 | 35.1% | –
CCn1c(C)nc2cc(-c3nc4n(n3)Cc3ccccc3-4)ccc21 | inactive: -64.7% | –
CCOc1cc(CNc2ncc(-c3ccc(OC)cc3)n2C)ccc1O | 34.9% | –
CCC1CCCCN1C(=S)Nc1ccc(OC(F)F)cc1 (centres undefined) | -57% | –
Cc1ccn2c(-c3csc(NCc4ccco4)n3)c(C)nc2c1 | -31.2% | –
CC(=O)c1c(C)[nH]c(C(=O)OC2CCOC2=O)c1C (centres undefined) | 56.6% | –
CCCCCCCCCc1nc2sc3c(c2c(=O)n1NC(=O)c1ccccc1[N+](=O)[O-])CC(C)(C)OC3 | -72.4% | –
COc1ccc(OC)c(C(=O)c2ccc(C(=O)Nc3ccc4ccccc4c3)cc2)c1 | inactive: -52.4% | –
O=C(N/N=C/c1cccnc1)c1cc2c(ccc3ccccc32)o1 | inactive: -13.4% | –
COc1ccc(-n2ncc3c(N4CCc5ccccc54)ncnc32)cc1 | – | active: 5.62 µM
Cc1ccc(C2/C(=C(/O)c3cnn(-c4ccccc4)c3C)C(=O)C(=O)N2CCN2CCOCC2)o1 (centres undefined) | inactive: -51.7% | –
Cc1cccc(NCCC#N)c1 | 30.6% | –
NC(=O)c1cc2cc(Cl)ccc2oc1=O | 33.3% | –
CC(Oc1ccc(C(=O)c2ccccc2)cc1)C(=O)Nc1ccc(S(N)(=O)=O)cc1 (centres undefined) | -59.6% | –
CCOc1ccc(/C=C/C2=NNC(=O)CC2)cc1 | – | active: 11.2 µM
Cc1nc2nc[nH]n2c(=O)c1NC(=O)c1c(-c2ccccc2Cl)noc1C | 64.2% | –
COc1cc2c(cc1OC)C(c1ccsc1)CC(=O)N2 (centres undefined) | 22% | –

Reprinted at random: 2 records from the list, in no set order.
Structure (SMILES) | activity change, positive = activation | Potency
CCCCOC(=O)c1ccc(O)cc1 | – | inactive
COc1ccc(-n2ncc3c(N4CCc5ccccc54)ncnc32)cc1 | – | active: 5.62 µM
